Results deposited as PubChem BioAssay AID1259308 (NCATS, 2017).
Here is a random part of about 59,000 reagents tested. About 1,510 of them (2.6%) count as active. 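Calls use total luciferase alone and ignore viability, so some active siRNAs may act by altering cell number.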 Reagents against one gene are numbered here. Not all columns of the deposit are shown. No sequences are given here.

Screen: 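Candidate targets for better recombinant protein yield in mammalian cells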 (primary screen)
Cells: human HEK293 embryonic kidney cells stably expressing firefly luciferase (HEK-CMV-Luc2-Hygro)
Knock-down reagent: single siRNA against human genes, 0.8 pmol siRNA per well
Timing: 72 h
Read-out: 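Reporter luminescence and viable-cell signal on separate replicate plates, given as percent of non-targeting control and median/MAD z-scores, plus per-cell luciferase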
Scale: total luciferase, z-score and total luciferase, % of control: higher = more reporter protein produced
Hit rule: 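An siRNA counts as active if its total luciferase robust z-score exceeds 3; genes with two or more such siRNAs out of three were retested with fresh siRNAs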
Calls: active = raised luciferase; inactive = no rise

no.	gene	reagent	total luciferase, z-score	total luciferase, % of control	activity call
1	OR4X2	1	-1.21	57.8	inactive
2	OR4X2	2	0.0455	82.8	inactive
3	OR4X2	3	0.227	86.4	inactive
4	SUN3	1	0.182	85.5	inactive
5	SUN3	2	-1.34	55.2	inactive
6	SUN3	3	-0.0813	80.3	inactive
7	CA9	1	-2	42	inactive
8	CA9	2	0.803	97.9	inactive
9	CA9	3	-2.6	30.2	inactive
10	FFAR1	1	1.02	102	inactive
11	FFAR1	2	1.68	115	inactive
12	FFAR1	3	0.714	96.1	inactive
13	PGCKA1	1	-0.344	75	inactive
14	PGCKA1	2	1.96	121	inactive
15	PGCKA1	3	-0.189	78.1	inactive
16	ZNF154	1	2.29	128	inactive
17	ZNF154	2	0.68	95.4	inactive
18	ZNF154	3	2.46	131	inactive
19	AQP4	1	0.179	85.4	inactive
20	AQP4	2	0.249	86.8	inactive
21	AQP4	3	-1.13	59.4	inactive
22	RP2	1	1.17	105	inactive
23	RP2	2	1.12	104	inactive
24	RP2	3	0.574	93.3	inactive
25	SPRED3	1	0.995	102	inactive
26	SPRED3	2	0.769	97.2	inactive
27	SPRED3	3	0.906	99.9	inactive
28	ABHD2	1	-0.183	78.2	inactive
29	ABHD2	2	0.502	91.9	inactive
30	ABHD2	3	0.862	99	inactive
31	CUL4B	1	-1.29	56.2	inactive
32	CUL4B	2	0.215	86.2	inactive
33	CUL4B	3	0.583	93.5	inactive
34	SEPTIN4	1	3.72	156	active
35	SEPTIN4	2	0.0722	83.3	inactive
36	SEPTIN4	3	3.55	152	active
37	SEPTIN4	4	-1.13	59.4	inactive
38	SEPTIN4	5	-1.1	60.1	inactive
39	SEPTIN4	6	-0.185	78.2	inactive
40	SLC7A10	1	-2.06	40.9	inactive
41	SLC7A10	2	-0.373	74.5	inactive
42	SLC7A10	3	-0.494	72.1	inactive
43	XYLB	1	-1.29	56.3	inactive
44	XYLB	2	1.96	121	inactive
45	XYLB	3	0.0809	83.5	inactive
46	GAD2	1	1.62	114	inactive
47	GAD2	2	-1.23	57.4	inactive
48	GAD2	3	1.07	103	inactive
49	MIF4GD	1	0.254	86.9	inactive
50	MIF4GD	2	0.383	89.5	inactive
51	MIF4GD	3	-1.82	45.6	inactive
52	INTS6	1	0.171	85.3	inactive
53	INTS6	2	0.792	97.6	inactive
54	INTS6	3	0.649	94.8	inactive
55	TRAPPC3	1	1.12	104	inactive
56	TRAPPC3	2	2.76	137	inactive
57	TRAPPC3	3	-0.68	68.4	inactive

4 of these entries, set out differently:
{"gene":"XYLB","reagent":1,"total luciferase, z-score":-1.29,"total luciferase, % of control":56.3,"activity call":"inactive"}
{"gene":"XYLB","reagent":2,"total luciferase, z-score":1.96,"total luciferase, % of control":121,"activity call":"inactive"}
{"gene":"XYLB","reagent":3,"total luciferase, z-score":0.0809,"total luciferase, % of control":83.5,"activity call":"inactive"}
{"gene":"GAD2","reagent":1,"total luciferase, z-score":1.62,"total luciferase, % of control":114,"activity call":"inactive"}
